# Source: the supplement of paper PMC10735217
# Some of the results follow. This data set is noisy: repeats of one test often differ as much as different tests do.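 Human kidney-derived cells stably carry a construct in which eight TEAD-binding elements drive luciferase, measured by luminescence in a drug-repurposing library screen. A hit is any compound whose signal exceeds the plate mean by more than five robust Z scores.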
# Tested on: HEK293A TEAD-LUC reporter
# Experiment: TEAD-luciferase reporter activity (YAP activation), robust Z score vs plate; higher = stronger YAP/TEAD activation
# Settings: 24 h
Compound,TEAD-luciferase reporter activity (compound concentration: 200 nM),TEAD-luciferase reporter activity (compound concentration: 2 uM),TEAD-luciferase reporter activity (compound concentration: 10 uM)
CCOC(=O)c1ccc(NC(=O)/C=C(C)/C=C/C=C(C)/C=C/C2=C(C)CCCC2(C)C)cc1,inactive: -2.05,inactive: -0.385,inactive: 2.57
COCCC(CC1(C(=O)NCCCc2ccc(Cl)cc2)CCCC1)C(=O)O (centres undefined),inactive: -1.63,inactive: 0.76,inactive: 1.67
CC(C)CC(N)C(=O)NC(Cc1c[nH]c2ccccc12)C(=O)O (centres undefined),inactive: -1.31,–,inactive: -1.13
COC(=O)/C(=C/c1cc(OC)cc(OC)c1)c1ccc(Oc2ccc(CC3SC(=O)NC3=O)cc2)cc1 (centres undefined),inactive: -1.62,inactive: -1.3,inactive: -0.962
CN(Cc1cccc2ccccc12)C1CCc2ccccc21 (centres undefined),inactive: 0.34,–,inactive: 1.69
O=C(Nc1c(Cl)c[n+]([O-])cc1Cl)c1ccc(OC(F)F)c2oc3ccncc3c12 [Revamilast],inactive: 4.34,inactive: -0.722,inactive: 1.09
CN1CCCc2cccc(OCC3CNCCO3)c21 (centres undefined),inactive: 0.284,inactive: -1.25,inactive: -0.0696
CS(=O)(=O)OC[C@H](O)[C@@H](O)COS(C)(=O)=O [Treosulfan],inactive: -0.711,inactive: -0.545,inactive: 0.0985
CCC(=O)N1Cc2ccccc2CC2(CCCN2Cc2ccccc2)C1 (centres undefined),inactive: 2.18,–,inactive: -0.125
CC(Cc1ccccc1)NN (centres undefined),inactive: -2.61,inactive: -1.69,inactive: -1.2
CC(=O)N(c1onc(C)c1C)S(=O)(=O)c1ccc(N)cc1,inactive: -0.0995,inactive: 0.37,inactive: -0.00801
Nc1nc(NC2CC2)c2ncn([C@H]3C=C[C@@H](CO)C3)c2n1 [abacavir],inactive: -1.21,inactive: -0.762,inactive: -0.382
O=C1CC[C@H](N2Cc3c(OCc4ccc(CN5CCOCC5)cc4)cccc3C2=O)C(=O)N1 [Iberdomide],inactive: -1.26,inactive: 3.01,inactive: 3.03
CC(C)C(=O)c1ccc(OCCCN2CCC(C(O)(c3ccc(F)cc3)c3ccc(F)cc3)CC2)cc1,inactive: -1.31,inactive: 1.41,inactive: -1.12
CCCN1CCCCC12Cc1ccccc1CN(C(=O)CNC(C)=O)C2 (centres undefined),inactive: -3.99,–,inactive: 3.57
C[C@](N)(Cc1ccc(O)cc1)C(=O)O [L-alpha-Methyl-p-tyrosine],inactive: -1.13,–,inactive: -1.09
C[C@](N)(Cc1ccc(O)cc1)C(=O)O [Metirosine],–,inactive: -0.963,–

# No new results follow: entries from further up.
Compound,TEAD-luciferase reporter activity (compound concentration: 200 nM),TEAD-luciferase reporter activity (compound concentration: 2 uM),TEAD-luciferase reporter activity (compound concentration: 10 uM)
COC(=O)/C(=C/c1cc(OC)cc(OC)c1)c1ccc(Oc2ccc(CC3SC(=O)NC3=O)cc2)cc1 (centres undefined),inactive: -1.62,inactive: -1.3,inactive: -0.962
CN(Cc1cccc2ccccc12)C1CCc2ccccc21 (centres undefined),inactive: 0.34,–,inactive: 1.69
O=C(Nc1c(Cl)c[n+]([O-])cc1Cl)c1ccc(OC(F)F)c2oc3ccncc3c12 [Revamilast],inactive: 4.34,inactive: -0.722,inactive: 1.09
CN1CCCc2cccc(OCC3CNCCO3)c21 (centres undefined),inactive: 0.284,inactive: -1.25,inactive: -0.0696
CS(=O)(=O)OC[C@H](O)[C@@H](O)COS(C)(=O)=O [Treosulfan],inactive: -0.711,inactive: -0.545,inactive: 0.0985
